Experimental data reported in patent US9481734B2 (Janssen Biotech, Inc., priority 2007, dated 2016).
For part of these data: Where a sequence shows no end group, the ends are not given.

Columns and labels:
[1] = general procedure: Fmoc solid-phase peptide synthesis; Fmoc-Glu(OtBu)-Wang Resin; FastMoc chemistry; conditions: whole synthesis, scale 0.25 mmol
human IgG1 = assay: Proteinase digestion of purified IgG1, Agilent biosizing; assay type: biochemical; conditions: human IgG1 heavy chain, EU numbering; 1% (w/w) enzyme, pH 7.5, 37° C.
Experimental: A purified monoclonal antibody comprising a human IgG heavy chain was contacted with the proteases described and sampling was conducted over various durations of contact. Fragmentation in the samples was evaluated using the Agilent microfluidics “lab-on-a-chip” technology for in vitro biosizing (Goetz H et al. Biochemical and Biophysical Methods 60; 281-293, 2004).
Proteinase digestions of purified IgGs were carried out at pH 7.5 in phosphate-buffered saline (PBS) or, for the metalloproteinases, in Tris-buffered saline buffer at 37° C. Calcium chloride was included in the metalloproteinase reactions at 1 mM for MMP-12 and 10 mM for MMP-3; otherwise no additives were used. Antibody concentrations were typically 1 or 2 mg/mL and reactions were initiated by addition of enzyme to a 1% (w/w) ratio to IgG. Aliquots (10-20 μL) were removed at indicated times and the reactions were stopped either by adjustment to 20 mM EDTA (metalloproteinase incubations) or to 1 mM iodoacetamide (cysteine proteinases) or by rapid freezing.
The major proteolytic cleavage positions in the IgG1 hinge were identified for enzyme-generated fragments by N-terminal sequencing of the purified Fc fragment (MMP-3 and MMP-12) and/or high resolution mass spectrometric analyses of the purified Fab (neutrophil elastase, plasmin) and F(ab′)2 (cathepsin G, glutamyl endopeptidase and IdeS) fragments. Fragmentation was evaluated using the Agilent microfluidics “lab-on-a-chip” technology.

## CTSPPSPSPAPE
[1]
  crude mass: Approximately 190 mg
  isolated mass: 38 mg

## Cathepsin G: human serine endopeptidase
Human IgG1
  Cleaved Site: Glu^233-

## Matrilysin (MMP-7): human metalloendopeptidase
Human IgG1
  Cleaved Site: Leu^234-

## Neutrophil elastase: human neutrophil serine endopeptidase
Human IgG1
  Cleaved Site: Thr^223-

## Stromelysin (MMP-3): human metalloendopeptidase
Human IgG1
  Cleaved Site: Pro^232-
